In publication PMC10008303 one finds binding data, which are given here for two molecules.

Chains of the proteins cited; added tags and fusions are not shown. Lines headed by an entry give the natural chain unless they say otherwise; changes in a name come on top.
UniProt B6D1Q5: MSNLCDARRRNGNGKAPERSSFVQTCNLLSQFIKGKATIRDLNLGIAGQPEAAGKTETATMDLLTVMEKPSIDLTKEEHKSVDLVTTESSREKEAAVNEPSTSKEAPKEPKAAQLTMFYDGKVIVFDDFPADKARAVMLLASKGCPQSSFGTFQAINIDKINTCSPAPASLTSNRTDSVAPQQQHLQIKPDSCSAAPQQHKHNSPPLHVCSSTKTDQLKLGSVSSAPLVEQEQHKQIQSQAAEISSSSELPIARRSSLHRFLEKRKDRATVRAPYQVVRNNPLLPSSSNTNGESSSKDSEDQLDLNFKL

These are yes or no findings as the source states them, for the method shown. In cells and extracts the contact can be indirect. For some assays here: Binding calls can cover weak binding; strength is not graded here. For some assays here: Where a sequence is shown, tags or fusion partners need not be part of it.

Test [1] concerns the target Fls2/Fls3 interacting RLCK 1 (Fir1) fused to the C-terminal fragment of luciferase (tomato (Solanum lycopersicum)). In words: split reporter; split-luciferase complementation; C-LUC-Fir1 co-expressed with N-LUC fusions via A. tumefaciens in N. benthamiana leaves; relative luminescence of leaf discs at 48 h after agro-infiltration.
Test [2] concerns the target Fir1 fused to the glutathione-S-transferase (GST) protein (tomato (Solanum lycopersicum)). In words: pull-down; GST-Fir1 bound to glutathione resin, incubated overnight with lysates of E. coli cells expressing His-JAZ3 or His-JAZ7, washed; eluted proteins blotted with anti-His antibodies; only the target purified.

On to “JASMONATE-ZIM-DOMAIN PROTEIN 3 (JAZ3) fused to the N-terminal fragment of luciferase (from UniProt B6D1Q5)”, for which the binding entry in test [1] is recorded as “binds”.

B1: His-tagged JAZ7 (protein, UniProt Q9M723 1-228)
chain: MDSRMEIDFMDLNSKPKLSEMEKQHKKVSGMKWPFSLADLATHHEHTFFQNYKSTPIVSINSKNSSLNNYKSTIDPQYFRGTFPLLAKTSTYDSRKNYDNLSPNESTLTIFYMGEVHIFPGISPEKAELIIDLVSKSTTLHMDEILEKVMNKEKYEENKSDPSNASTNYAKGALAMARRATLARFLEKRKHRLIKARPYLYGENLSKFPFDIQQQEEETASSSVHWEN
Regarding B1, in test [2], the binding entry is on record as “no binding”.
